The values that follow come from patent publication US20200405832A1 (MINERVA BIOTECHNOLOGIES, published 2020).

By UniProt entry, the sequences of proteins in these tests, tags left out. Where a name states a change or a piece, a line headed by the entry shows the natural chain unless it says otherwise.
UniProt P15941: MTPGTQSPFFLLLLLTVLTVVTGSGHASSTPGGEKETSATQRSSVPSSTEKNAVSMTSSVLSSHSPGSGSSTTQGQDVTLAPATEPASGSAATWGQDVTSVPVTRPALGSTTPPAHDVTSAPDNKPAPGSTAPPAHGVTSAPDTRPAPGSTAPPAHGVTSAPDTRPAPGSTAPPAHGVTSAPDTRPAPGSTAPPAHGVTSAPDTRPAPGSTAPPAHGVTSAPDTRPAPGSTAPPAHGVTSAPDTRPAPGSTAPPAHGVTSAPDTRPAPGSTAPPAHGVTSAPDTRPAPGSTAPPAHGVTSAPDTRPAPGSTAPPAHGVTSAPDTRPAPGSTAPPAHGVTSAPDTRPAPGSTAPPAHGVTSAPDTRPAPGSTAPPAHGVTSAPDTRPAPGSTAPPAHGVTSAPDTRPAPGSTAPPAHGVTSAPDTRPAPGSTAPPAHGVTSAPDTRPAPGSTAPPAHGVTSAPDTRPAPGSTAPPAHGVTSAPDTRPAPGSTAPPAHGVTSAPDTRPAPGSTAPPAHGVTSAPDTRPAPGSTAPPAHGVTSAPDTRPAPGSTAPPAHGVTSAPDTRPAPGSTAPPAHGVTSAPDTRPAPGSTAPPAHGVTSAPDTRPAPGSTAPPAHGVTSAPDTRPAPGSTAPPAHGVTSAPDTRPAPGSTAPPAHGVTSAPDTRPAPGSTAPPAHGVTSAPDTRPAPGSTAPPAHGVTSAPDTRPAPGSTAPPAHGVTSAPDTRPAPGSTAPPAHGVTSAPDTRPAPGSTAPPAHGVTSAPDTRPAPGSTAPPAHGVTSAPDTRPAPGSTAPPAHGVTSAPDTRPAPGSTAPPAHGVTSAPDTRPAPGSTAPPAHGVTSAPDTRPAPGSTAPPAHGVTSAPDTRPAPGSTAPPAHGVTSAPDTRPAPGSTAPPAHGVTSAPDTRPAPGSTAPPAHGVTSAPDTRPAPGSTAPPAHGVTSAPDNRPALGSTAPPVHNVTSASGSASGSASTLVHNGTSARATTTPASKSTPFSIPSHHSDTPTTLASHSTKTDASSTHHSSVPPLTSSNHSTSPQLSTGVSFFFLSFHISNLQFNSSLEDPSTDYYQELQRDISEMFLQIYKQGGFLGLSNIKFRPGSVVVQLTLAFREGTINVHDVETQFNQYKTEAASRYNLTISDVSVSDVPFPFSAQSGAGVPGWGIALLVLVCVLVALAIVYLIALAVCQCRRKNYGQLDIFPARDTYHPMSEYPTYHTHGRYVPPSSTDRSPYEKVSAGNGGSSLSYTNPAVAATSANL

These are yes or no findings as the source states them, for the method shown. Some results given as binding are weak or reduced against the parent protein; the word gives no strength.

The target in this assay is MUC1* as on cancer cells and cancerous tissue (T47D breast cancer cells, DU145 prostate cancer cells) (human) (UniProt P15941). The experiment in a line: tissue binding; assay not described.

B1: mouse monoclonal antibody MN-E6 (antibody, V domains shown)
VH: EVKVVESGGDLVKPGGSLKLSCVVSGFTFSRYGMSWVRQTPGKRLEWVATISGGGTYIYYPDSVKGRFTISRDNAKNTLYLQMSSLKSEDTAMYHCTRDNYGRNYDYGMDYWGQGTSVTVSS
VL: QIVLTQSPAIMSASPGEEVTLTCSATSSVSYIHWFQQRPGTSPKLWIYSTSNLASGVPVRFSGSGYGTSYSLTISRMEAEDAATYYCQQRSSSPFTFGSGTKLEIK
notes: also called Min-E6
Regarding B1, the binding result was “binds”.
